Record: PubChem BioAssay AID652272 (Drosophila RNAi Screening Center, 2013)
Purpose: 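Genome-wide knock-down search for components of Hedgehog signalling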 (primary screen). Cell system: Drosophila clone 8 (Cl8) cells. Reagents: long dsRNA against Drosophila genes. Measurement: 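Firefly light from a Hedgehog-responsive ptc promoter reporter and Renilla reference light, both read on a plate reader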. Direction: firefly Hh reporter signal: higher = more ptc reporter light; Renilla reference signal: higher = more Renilla control light. Hit rule: 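Hit when the z-score averaged over two replicates is under -2 or over +3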. Calls: active = hit: reporter lowered or raised; inactive = not a hit.
The deposit covers about 21,000 reagents; below is a random part of those that have a named target and a result. Over the whole deposit, 503 (2.4%) are marked active. 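Raw plate light values, not normalised; calls rest on replicate z-scores that were not deposited; hits include reporter decreases as well as increases.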 Not given: the amount of reagent, the time to read-out.

Knock-down of CG13073 [DRSC09956] came out at: firefly Hh reporter signal, replicate 1 = 1.27e5; Renilla reference signal, replicate 1 = 5956; Renilla reference signal, replicate 2 = 3505; inactive.
Knock-down of Ance-2 [DRSC02539] gave: firefly Hh reporter signal, replicate 1 = 1.39e5; firefly Hh reporter signal, replicate 2 = 45712; Renilla reference signal, replicate 1 = 3589; Renilla reference signal, replicate 2 = 3993; inactive.
tous [DRSC04464] gave firefly Hh reporter signal, replicate 1 = 1.08e5; firefly Hh reporter signal, replicate 2 = 91255; Renilla reference signal, replicate 1 = 4160; Renilla reference signal, replicate 2 = 3894; inactive.
CG13912 [DRSC08381] showed firefly Hh reporter signal, replicate 1 = 50421; firefly Hh reporter signal, replicate 2 = 49553; Renilla reference signal, replicate 1 = 1830; Renilla reference signal, replicate 2 = 3651; inactive.
CG10433 [DRSC04068] gave firefly Hh reporter signal, replicate 1 = 1.87e5; firefly Hh reporter signal, replicate 2 = 1.18e5; Renilla reference signal, replicate 1 = 7142; Renilla reference signal, replicate 2 = 4650; inactive.
For Trf5 [DRSC00412], the values are firefly Hh reporter signal, replicate 1 = 1.07e5; firefly Hh reporter signal, replicate 2 = 90492; Renilla reference signal, replicate 1 = 2391; Renilla reference signal, replicate 2 = 2155; inactive.
Gld2 [DRSC15863] scored firefly Hh reporter signal, replicate 1 = 1.75e5; firefly Hh reporter signal, replicate 2 = 1.68e5; Renilla reference signal, replicate 1 = 11545; Renilla reference signal, replicate 2 = 3603; inactive.
Knock-down of Mipp1 [DRSC11223] came out at: firefly Hh reporter signal, replicate 1 = 86023; firefly Hh reporter signal, replicate 2 = 68180; Renilla reference signal, replicate 1 = 3016; Renilla reference signal, replicate 2 = 2436; inactive.
CG5556 [DRSC00687] gave firefly Hh reporter signal, replicate 1 = 1.84e5; firefly Hh reporter signal, replicate 2 = 1.17e5; Renilla reference signal, replicate 1 = 4141; Renilla reference signal, replicate 2 = 2962; inactive.
Silencing of Arpc4 [DRSC02917] resulted in: firefly Hh reporter signal, replicate 1 = 1.01e5; firefly Hh reporter signal, replicate 2 = 37414; Renilla reference signal, replicate 1 = 2999; Renilla reference signal, replicate 2 = 4101; inactive.
For alpha-Est9 [DRSC12621] the deposit lists firefly Hh reporter signal, replicate 1 = 65591; firefly Hh reporter signal, replicate 2 = 1.20e5; Renilla reference signal, replicate 1 = 2048; Renilla reference signal, replicate 2 = 3451; inactive.
Depletion of CG3165 [DRSC00573] gave: firefly Hh reporter signal, replicate 1 = 82772; firefly Hh reporter signal, replicate 2 = 60304; Renilla reference signal, replicate 1 = 3474; Renilla reference signal, replicate 2 = 2880; inactive.
With knock-down of Osi9 [DRSC12278], the record shows firefly Hh reporter signal, replicate 1 = 4.64e5; firefly Hh reporter signal, replicate 2 = 85280; Renilla reference signal, replicate 1 = 3001; Renilla reference signal, replicate 2 = 3001; inactive.
Against ValRS-m [DRSC10535] the deposit lists firefly Hh reporter signal, replicate 1 = 64677; firefly Hh reporter signal, replicate 2 = 68282; Renilla reference signal, replicate 1 = 6631; Renilla reference signal, replicate 2 = 4579; inactive.
